These are yes or no findings as the source states them, for the method shown. In cells and extracts the contact can be indirect. Some binding calls cover weakened binding; strength is not graded here. For part of these data: Tags and fused reporters may be left off the sequences shown.
B1: smAKAP-FLAG-EGFP (protein, UniProt Q9BSF0 1-95)
chain: MGCMKSKQTFPFPTIYEGEKQHESEEPFMPEERCLPRMASPVNVKEEVKEPPGTNTVILEYAHRLSQDILCDALQQWACNNIKYHDIPYIESEGP

Chains of the proteins cited; added tags and fusions are not shown. Lines headed by an entry give the natural chain unless they say otherwise; changes in a name come on top.
UniProt P31321: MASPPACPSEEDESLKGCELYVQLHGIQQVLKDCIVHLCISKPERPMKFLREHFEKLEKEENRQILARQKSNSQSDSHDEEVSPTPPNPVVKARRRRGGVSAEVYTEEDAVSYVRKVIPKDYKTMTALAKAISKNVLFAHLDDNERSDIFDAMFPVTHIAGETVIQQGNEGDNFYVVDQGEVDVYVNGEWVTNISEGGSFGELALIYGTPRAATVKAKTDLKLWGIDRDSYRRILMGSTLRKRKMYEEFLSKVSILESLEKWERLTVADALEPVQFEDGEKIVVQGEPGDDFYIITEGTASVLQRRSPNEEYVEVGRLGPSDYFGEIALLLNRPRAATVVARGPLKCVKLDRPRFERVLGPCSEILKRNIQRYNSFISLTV

Experiments:
smAKAP-LgBiT = molecular target: T1, smAKAP-LgBiT (UniProt Q9BSF0); test: split reporter; NanoBiT luciferase complementation in live COS-1 and HEK293 cells; 3 h Opti-MEM to deplete basal cAMP; 37°C; normalised to maximum complementation (HiBiT peptide) and to the RIβ^WT-LgBiT, RIβ^WT-SmBiT condition
T1 sequence: B1 chain

[1] = molecular target: RIβ^L50R-V5-LgBiT (human) (UniProt P31321); test: co-IP; HEK293 cells co-transfected with V5-(LgBiT)-tagged RIβ and FLAG-tagged RIβ or EGFP-tagged smAKAP; lysis in IP buffer (20 mM Tris pH 7.5, 150 mM NaCl, 1% Triton X-100, 1 mM EDTA, 1 mM EGTA); anti-V5 tag agarose beads 1 h at 4°C; immunoblot
RIβ^WT-V5-LgBiT (human) = RIβ^WT-V5-LgBiT (human) (UniProt P31321); test: as above

Row | Molecule | binding (smAKAP-LgBiT) | binding [1] | binding (RIβ^WT-V5-LgBiT (human))
1 | RIβ^WT-SmBiT (from UniProt P31321 1-381) | binds | – | –
2 | B1 | – | no binding | binds

From paper PMC12369641
